These results are taken from article doi:10.1101/2025.01.23.634542, “Convergent Agonist and Heat Activation of Nociceptor TRPM3” (bioRxiv, 2025).

The subject of this series is rTRPM3. Kind of series: Cryo-EM subunit and tetramer conformational analysis of ligand-bound rTRPM3. The conditions noted are these: 18 °C; for Proportion of subunits in the activated conformation: apo 16%. Details: species or system rabbit.

In the case of `Cc1cc(NC(=O)C(c2ccccc2)N2CCCc3ccccc32)no1` (stereo not drawn) [CIM0216], the “Proportion of subunits in the activated conformation” value came to 80%. For the same compound, the “Proportion of tetramers with three or four activated subunits” value (apo 18 °C 2%) is listed as 83%.
Regarding `CCC1(c2ccccc2)C(=O)NCNC1=O` [primidone], the “Proportion of subunits in the activated conformation” value came to 30%.
